Reference: the supplement of paper PMC10849652
The other results are listed elsewhere or left out. Residues, ends and D or L forms follow the SMILES beside them. *: point of attachment. Cbz = O=C(OCc1ccccc1)*

By UniProt entry, the sequences of proteins in these tests, tags left out. Where a name states a change or a piece, a line headed by the entry shows the natural chain unless it says otherwise.
UniProt Q04727: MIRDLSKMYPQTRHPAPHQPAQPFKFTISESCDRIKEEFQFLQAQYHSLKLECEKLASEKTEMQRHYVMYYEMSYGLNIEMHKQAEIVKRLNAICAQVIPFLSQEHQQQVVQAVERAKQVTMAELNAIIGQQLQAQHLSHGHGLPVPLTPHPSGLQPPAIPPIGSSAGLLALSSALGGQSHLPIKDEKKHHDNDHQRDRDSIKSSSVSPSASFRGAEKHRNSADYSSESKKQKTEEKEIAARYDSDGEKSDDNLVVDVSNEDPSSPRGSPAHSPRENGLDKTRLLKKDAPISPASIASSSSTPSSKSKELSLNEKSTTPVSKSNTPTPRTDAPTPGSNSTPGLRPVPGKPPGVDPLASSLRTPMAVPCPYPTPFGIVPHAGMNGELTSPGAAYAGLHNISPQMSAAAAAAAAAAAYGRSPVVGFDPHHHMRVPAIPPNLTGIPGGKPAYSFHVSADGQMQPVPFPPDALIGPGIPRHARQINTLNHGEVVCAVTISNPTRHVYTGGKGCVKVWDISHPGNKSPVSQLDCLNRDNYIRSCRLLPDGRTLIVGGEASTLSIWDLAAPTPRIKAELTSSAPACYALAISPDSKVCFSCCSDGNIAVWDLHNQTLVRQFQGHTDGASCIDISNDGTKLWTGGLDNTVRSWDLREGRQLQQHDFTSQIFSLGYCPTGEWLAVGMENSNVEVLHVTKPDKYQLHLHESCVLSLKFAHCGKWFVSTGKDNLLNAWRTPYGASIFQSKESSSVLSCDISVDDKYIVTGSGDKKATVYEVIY
UniProt Q9Y2S6, whole entry, looked up: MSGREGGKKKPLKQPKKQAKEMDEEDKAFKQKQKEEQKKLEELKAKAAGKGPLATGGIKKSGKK
UniProt Q9NYL9: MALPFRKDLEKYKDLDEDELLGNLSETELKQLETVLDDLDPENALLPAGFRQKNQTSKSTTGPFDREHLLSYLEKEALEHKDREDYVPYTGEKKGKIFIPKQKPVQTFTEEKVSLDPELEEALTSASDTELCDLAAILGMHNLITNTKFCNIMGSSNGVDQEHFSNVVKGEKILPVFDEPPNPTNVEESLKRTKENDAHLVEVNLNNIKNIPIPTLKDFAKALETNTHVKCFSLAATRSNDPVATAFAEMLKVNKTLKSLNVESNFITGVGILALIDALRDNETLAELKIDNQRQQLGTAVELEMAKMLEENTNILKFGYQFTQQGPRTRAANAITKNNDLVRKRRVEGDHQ
UniProt Q71RG4: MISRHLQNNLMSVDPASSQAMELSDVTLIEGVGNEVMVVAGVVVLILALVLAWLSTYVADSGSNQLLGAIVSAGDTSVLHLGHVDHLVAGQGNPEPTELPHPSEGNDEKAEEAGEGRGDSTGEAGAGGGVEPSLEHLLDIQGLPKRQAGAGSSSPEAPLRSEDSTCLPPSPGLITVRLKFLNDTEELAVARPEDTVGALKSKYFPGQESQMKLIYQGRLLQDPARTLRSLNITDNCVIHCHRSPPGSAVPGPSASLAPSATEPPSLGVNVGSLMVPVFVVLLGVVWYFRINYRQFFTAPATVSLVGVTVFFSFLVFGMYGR
UniProt Q9Y3A6: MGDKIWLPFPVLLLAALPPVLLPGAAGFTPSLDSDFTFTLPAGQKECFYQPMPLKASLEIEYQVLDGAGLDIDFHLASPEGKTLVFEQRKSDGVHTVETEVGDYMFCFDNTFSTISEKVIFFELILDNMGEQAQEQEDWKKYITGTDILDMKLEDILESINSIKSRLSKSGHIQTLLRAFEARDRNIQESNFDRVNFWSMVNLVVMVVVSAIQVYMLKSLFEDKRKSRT
UniProt Q9H0R3: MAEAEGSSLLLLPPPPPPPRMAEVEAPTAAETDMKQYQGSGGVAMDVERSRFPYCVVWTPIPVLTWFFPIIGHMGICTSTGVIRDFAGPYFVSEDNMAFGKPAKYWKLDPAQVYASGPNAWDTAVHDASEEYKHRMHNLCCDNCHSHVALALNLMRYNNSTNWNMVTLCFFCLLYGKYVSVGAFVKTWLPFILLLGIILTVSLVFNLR
UniProt Q8TBQ9: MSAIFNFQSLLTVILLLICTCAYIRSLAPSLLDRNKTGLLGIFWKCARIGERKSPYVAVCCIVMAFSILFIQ
UniProt Q12893: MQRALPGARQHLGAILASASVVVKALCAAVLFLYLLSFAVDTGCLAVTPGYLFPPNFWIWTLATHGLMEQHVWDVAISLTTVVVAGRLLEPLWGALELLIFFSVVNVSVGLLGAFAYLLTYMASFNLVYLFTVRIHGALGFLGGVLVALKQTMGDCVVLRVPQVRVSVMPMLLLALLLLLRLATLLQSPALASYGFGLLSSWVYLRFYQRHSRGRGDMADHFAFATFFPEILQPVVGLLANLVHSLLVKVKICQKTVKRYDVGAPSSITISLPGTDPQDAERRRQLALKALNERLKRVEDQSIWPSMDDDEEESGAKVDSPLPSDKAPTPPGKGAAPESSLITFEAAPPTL
UniProt Q96SK2: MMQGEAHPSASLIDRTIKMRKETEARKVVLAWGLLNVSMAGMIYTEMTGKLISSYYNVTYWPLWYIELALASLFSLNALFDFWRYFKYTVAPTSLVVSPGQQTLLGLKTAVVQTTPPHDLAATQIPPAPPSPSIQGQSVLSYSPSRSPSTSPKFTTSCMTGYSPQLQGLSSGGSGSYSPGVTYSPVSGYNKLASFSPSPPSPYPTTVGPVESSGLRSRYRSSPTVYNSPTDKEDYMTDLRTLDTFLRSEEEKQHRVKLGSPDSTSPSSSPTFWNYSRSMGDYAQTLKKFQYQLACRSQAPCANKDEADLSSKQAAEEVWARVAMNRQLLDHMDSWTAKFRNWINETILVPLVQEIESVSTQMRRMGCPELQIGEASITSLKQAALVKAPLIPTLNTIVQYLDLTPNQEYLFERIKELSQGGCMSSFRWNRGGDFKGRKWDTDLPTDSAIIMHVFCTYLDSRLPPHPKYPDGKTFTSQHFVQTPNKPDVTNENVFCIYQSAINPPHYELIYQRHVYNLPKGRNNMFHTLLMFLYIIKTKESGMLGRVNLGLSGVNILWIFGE
UniProt P28289: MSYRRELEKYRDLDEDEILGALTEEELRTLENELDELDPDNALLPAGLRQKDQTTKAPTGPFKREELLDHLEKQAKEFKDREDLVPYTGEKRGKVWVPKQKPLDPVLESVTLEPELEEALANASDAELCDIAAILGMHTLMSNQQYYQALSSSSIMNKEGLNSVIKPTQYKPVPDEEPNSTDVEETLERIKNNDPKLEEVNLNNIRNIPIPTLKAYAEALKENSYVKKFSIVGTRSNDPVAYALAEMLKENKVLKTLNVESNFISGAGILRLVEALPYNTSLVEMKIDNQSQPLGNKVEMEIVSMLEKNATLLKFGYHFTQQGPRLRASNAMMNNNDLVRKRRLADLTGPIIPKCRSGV
UniProt Q9H7F4: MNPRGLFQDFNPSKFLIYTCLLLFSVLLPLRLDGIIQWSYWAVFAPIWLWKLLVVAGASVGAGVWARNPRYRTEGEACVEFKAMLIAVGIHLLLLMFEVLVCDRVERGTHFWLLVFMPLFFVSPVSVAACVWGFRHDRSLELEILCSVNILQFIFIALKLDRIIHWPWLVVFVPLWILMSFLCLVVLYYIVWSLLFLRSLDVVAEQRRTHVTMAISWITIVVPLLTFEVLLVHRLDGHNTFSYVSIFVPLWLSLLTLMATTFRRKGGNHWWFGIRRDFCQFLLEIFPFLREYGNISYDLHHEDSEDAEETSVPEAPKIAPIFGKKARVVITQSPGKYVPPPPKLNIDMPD
UniProt Q4ZIN3: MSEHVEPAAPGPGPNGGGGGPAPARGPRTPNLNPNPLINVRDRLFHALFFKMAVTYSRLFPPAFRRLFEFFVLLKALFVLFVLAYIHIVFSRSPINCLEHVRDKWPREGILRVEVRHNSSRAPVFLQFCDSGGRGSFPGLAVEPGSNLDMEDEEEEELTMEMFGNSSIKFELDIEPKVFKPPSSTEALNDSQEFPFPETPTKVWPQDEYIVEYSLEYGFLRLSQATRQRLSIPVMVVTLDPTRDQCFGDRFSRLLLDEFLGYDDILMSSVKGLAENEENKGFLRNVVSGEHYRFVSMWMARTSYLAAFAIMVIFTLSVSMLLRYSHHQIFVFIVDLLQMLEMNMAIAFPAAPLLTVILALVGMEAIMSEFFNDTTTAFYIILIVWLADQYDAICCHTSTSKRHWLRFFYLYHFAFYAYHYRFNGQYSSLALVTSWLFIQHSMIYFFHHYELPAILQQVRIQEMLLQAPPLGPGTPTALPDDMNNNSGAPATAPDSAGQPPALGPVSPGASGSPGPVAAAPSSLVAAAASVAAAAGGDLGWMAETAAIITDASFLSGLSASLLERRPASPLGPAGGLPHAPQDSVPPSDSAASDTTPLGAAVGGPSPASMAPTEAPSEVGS
UniProt Q8N511: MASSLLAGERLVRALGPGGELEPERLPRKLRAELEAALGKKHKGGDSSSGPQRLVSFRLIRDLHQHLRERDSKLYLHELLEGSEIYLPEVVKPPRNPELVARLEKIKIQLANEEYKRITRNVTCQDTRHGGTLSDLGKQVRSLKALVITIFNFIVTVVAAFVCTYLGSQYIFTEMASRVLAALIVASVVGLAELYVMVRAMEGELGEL
UniProt Q6PI78: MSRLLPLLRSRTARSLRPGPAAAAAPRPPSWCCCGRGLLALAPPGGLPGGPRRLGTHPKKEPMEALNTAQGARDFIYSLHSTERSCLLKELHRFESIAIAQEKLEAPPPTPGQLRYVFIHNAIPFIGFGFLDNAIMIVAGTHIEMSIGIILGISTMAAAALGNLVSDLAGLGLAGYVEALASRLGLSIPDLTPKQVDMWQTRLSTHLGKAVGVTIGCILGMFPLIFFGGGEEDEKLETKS
UniProt Q6ZT21: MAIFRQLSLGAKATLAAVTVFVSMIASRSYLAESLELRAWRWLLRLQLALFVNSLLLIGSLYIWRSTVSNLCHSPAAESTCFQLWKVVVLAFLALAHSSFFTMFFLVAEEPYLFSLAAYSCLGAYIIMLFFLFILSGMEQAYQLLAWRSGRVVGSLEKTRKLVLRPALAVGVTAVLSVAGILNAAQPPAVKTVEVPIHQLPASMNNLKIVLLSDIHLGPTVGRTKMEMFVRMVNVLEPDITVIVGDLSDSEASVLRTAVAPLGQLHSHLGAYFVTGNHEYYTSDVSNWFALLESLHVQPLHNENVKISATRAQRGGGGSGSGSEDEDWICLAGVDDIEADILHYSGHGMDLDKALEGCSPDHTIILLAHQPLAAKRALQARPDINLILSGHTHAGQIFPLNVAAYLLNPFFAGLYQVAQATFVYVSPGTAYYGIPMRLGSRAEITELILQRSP

Experiments:
Assay in all cases: log2 fold change, soluble protein after heating vs DMSO (PISA); higher = thermal stabilisation; K562 cells, 10 uM, 30 min; active = over 0.2 and 3.5 SD of the protein, either way, in both replicates (recomputed)
IRAK-1-4 Inhibitor I = compound: C1COCCN1CCN2C3=CC=CC=C3N=C2NC(=O)C4=CC(=CC=C4)[N+](=O)[O-] [IRAK-1-4 Inhibitor I]
Summary of the method: (§1)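 Soluble protein was defined as the supernatant after 21,000xg for 90 min. It came from K562 cells at 2×10^6 cells/mL given 10 μM compound for 30 min, heated in aliquots for 3 min across 48°C-58°C, pooled, and extracted in PBS with 0.5% NP-40 at 4°C, and was quantified by TMTpro 16plex LC-MS/MS with equalised channel sums. Thermal stability against control samples, from duplicates, is reported as log2 fold change.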

ibrutinib = compound: C=CC(=O)N1CCC[C@@H](n2nc(-c3ccc(Oc4ccccc4)cc3)c3c(N)ncnc32)C1 [ibrutinib]
Summary of the method: as §1

[1] = compound: CC(=O)c1cnc2ccc(-c3cc(Cl)c(O)c(Cl)c3)nc2c1N[C@H]1CC[C@H](CN(C)C)CC1
Summary of the method: as §1

ralimetinib = compound: CC(C)(C)Cn1c(N)nc2ccc(-c3[nH]c(C(C)(C)C)nc3-c3ccc(F)cc3)nc21 [ralimetinib]
Summary of the method: as §1

[2] = compound: CC(C)(O)CC(=O)NCCn1ccc2ncnc(Nc3ccc(Oc4cccc(C(F)(F)F)c4)c(Cl)c3)c21
Summary of the method: as §1

[3] = compound: CC(C)C1=C2N=C(C=C(N2N=C1)NCC3=CC=CC=C3)NCCCCCCN
Summary of the method: as §1

[4] = compound: CC(C)C[C@@H](C=O)NC(=O)[C@H](CC(C)C)NC(=O)[C@H](CC(C)C)NC(=O)OCc1ccccc1
Summary of the method: as §1

pinometostat = compound: CC(C)N(C[C@H]1O[C@@H](n2cnc3c(N)ncnc32)[C@H](O)[C@@H]1O)[C@H]1C[C@@H](CCc2nc3cc(C(C)(C)C)ccc3[nH]2)C1 [pinometostat]
Summary of the method: as §1

[5] = compound: CC1=C(C(CC(=O)N1)C2=CC=C(C=C2)C(F)(F)F)C(=O)NC3=C(C=C4C(=C3)C=NN4)F
Summary of the method: as §1

[6] = compound: CC1=C(C2=C(C=C1)C(=O)C3=CC=CC=C3N2CCCN)C
Summary of the method: as §1

[7] = compound: CC1=C(C=C(C=C1)NC(=O)C2=CC(=CC=C2)C(C)(C)C#N)NC3=CC4=C(C=C3)N=CN(C4=O)C
Summary of the method: as §1

[8] = compound: CC1=C(C=C(C=C1)NC(=O)C2=CC(=CC=C2)N(C)C)NC(=O)C3=CC=C(C=C3)O
Summary of the method: as §1

[9] = compound: CC1=CC=C(C=C1)SC2=C3C=C(SC3=CN=C2)C(=O)N
Summary of the method: as §1

[10] = compound: CC1=NC(=CC=C1)C2=C(N=C(N2)C(C)(C)C)C3=CC4=NC=CN=C4C=C3
Summary of the method: as §1

Nexturastat A = compound: CCCCN(Cc1ccc(C(=O)NO)cc1)C(=O)Nc1ccccc1 [Nexturastat A]
Summary of the method: as §1

vemurafenib = compound: CCCS(=O)(=O)Nc1ccc(F)c(C(=O)c2c[nH]c3ncc(-c4ccc(Cl)cc4)cc23)c1F [vemurafenib]
Summary of the method: as §1

[11] = compound: CCCS(=O)(=O)Nc1ccc(F)c(C(=O)c2c[nH]c3ncc(Cl)cc23)c1F
Summary of the method: as §1

[12] = compound: CCCc1cc(C)[nH]c(=O)c1CNC(=O)c1cc(-c2ccnc(N3CCN(C)CC3)c2)cc2c1cnn2C(C)C
Summary of the method: as §1

givinostat = compound: CCN(CC)Cc1ccc2cc(COC(=O)Nc3ccc(C(=O)NO)cc3)ccc2c1 [givinostat]
Summary of the method: as §1

barasertib = compound: CCN(CCCOc1ccc2c(Nc3cc(CC(=O)Nc4cccc(F)c4)[nH]n3)ncnc2c1)CCOP(=O)(O)O [barasertib]
Summary of the method: as §1

Measured: log2 fold change

TLE4 isoform 3 (UniProt Q04727)
inactive: IRAK-1-4 Inhibitor I 0.075 | ibrutinib -0.031 | [1] -0.015 | ralimetinib -0.078 | [2] -0.021 | [3] 0.018 | [4] -0.003 | pinometostat 0 | [5] 0.064 | [6] 0.01 | [7] -0.037 | [8] -0.03 | [9] -0.032 | [10] 0.001 | Nexturastat A -0.016 | vemurafenib -0.019 | [11] 0.006 | [12] -0.027 | givinostat -0.024 | barasertib -0.016

TMA7 (UniProt Q9Y2S6)
inactive: IRAK-1-4 Inhibitor I 0.054 | ibrutinib 0.017 | [1] 0.039 | ralimetinib -0.082 | [2] 0.005 | [3] 0.068 | [4] -0.006 | pinometostat -0.063 | [5] 0.03 | [6] -0.01 | [7] -0.104 | [8] 0.024 | [9] -0.02 | [10] -0.003 | Nexturastat A -0.005 | vemurafenib -0.02 | [11] -0.059 | [12] -0.043 | givinostat -0.083 | barasertib 0.023

TMOD3 (UniProt Q9NYL9)
inactive: IRAK-1-4 Inhibitor I -0.049 | ibrutinib -0.005 | [1] 0.048 | ralimetinib 0.088 | [2] -0.036 | [3] -0.102 | [4] 0.065 | pinometostat 0.015 | [5] -0.018 | [6] -0.067 | [7] 0.05 | [8] -0.024 | [9] 0.022 | [10] 0.013 | Nexturastat A 0.051 | vemurafenib 0.048 | [11] 0.051 | [12] 0.029 | givinostat 0.001 | barasertib 0.036

TMUB2 (UniProt Q71RG4)
inactive: IRAK-1-4 Inhibitor I -0.041 | ibrutinib 0.035 | [1] -0.018 | ralimetinib 0.017 | [2] 0.022 | [3] 0.083 | [4] 0.13 | pinometostat -0.004 | [5] -0.041 | [6] -0.069 | [7] 0.006 | [8] -0.01 | [9] -0.135 | [10] 0.009 | Nexturastat A 0.044 | vemurafenib -0.073 | [11] -0.025 | [12] -0.036 | givinostat 0.012 | barasertib -0.019

TMED5 (UniProt Q9Y3A6)
inactive: IRAK-1-4 Inhibitor I 0.001 | ibrutinib -0.001 | [1] 0.028 | ralimetinib -0.064 | [2] -0.03 | [3] -0.118 | [4] -0.054 | pinometostat 0.046 | [5] -0.025 | [6] 0.012 | [7] 0.013 | [8] -0.005 | [9] -0.021 | [10] -0.017 | Nexturastat A -0.011 | vemurafenib -0.021 | [11] -0.03 | [12] 0.016 | givinostat 0.022 | barasertib 0.004

TMEM222 (UniProt Q9H0R3)
inactive: IRAK-1-4 Inhibitor I 0.18 | ibrutinib 0.096 | [1] -0.265 | ralimetinib -0.087 | [2] -0.128 | [3] 0.026 | [4] -0.119 | pinometostat -0.008 | [5] 0.039 | [6] 0.148 | [7] -0.144 | [8] -0.011 | [9] -0.132 | [10] -0.104 | Nexturastat A -0.07 | vemurafenib 0.059 | [11] 0.017 | [12] -0.008 | givinostat -0.038 | barasertib -0.022

Two records drawn at random from those above:
TMEM222 (UniProt Q9H0R3)
inactive: IRAK-1-4 Inhibitor I 0.18 | ibrutinib 0.096 | [1] -0.265 | ralimetinib -0.087 | [2] -0.128 | [3] 0.026 | [4] -0.119 | pinometostat -0.008 | [5] 0.039 | [6] 0.148 | [7] -0.144 | [8] -0.011 | [9] -0.132 | [10] -0.104 | Nexturastat A -0.07 | vemurafenib 0.059 | [11] 0.017 | [12] -0.008 | givinostat -0.038 | barasertib -0.022

TMED5 (UniProt Q9Y3A6)
inactive: IRAK-1-4 Inhibitor I 0.001 | ibrutinib -0.001 | [1] 0.028 | ralimetinib -0.064 | [2] -0.03 | [3] -0.118 | [4] -0.054 | pinometostat 0.046 | [5] -0.025 | [6] 0.012 | [7] 0.013 | [8] -0.005 | [9] -0.021 | [10] -0.017 | Nexturastat A -0.011 | vemurafenib -0.021 | [11] -0.03 | [12] 0.016 | givinostat 0.022 | barasertib 0.004

More entries.

TMEM167A (UniProt Q8TBQ9)
inactive: IRAK-1-4 Inhibitor I 0.048 | ibrutinib 0.064 | [1] -0.005 | ralimetinib -0.038 | [2] -0.027 | [3] 0.08 | [4] 0.034 | pinometostat -0.01 | [5] -0.016 | [6] -0.067 | [7] 0.06 | [8] -0.037 | [9] -0.006 | [10] 0.027 | Nexturastat A -0.047 | vemurafenib -0.165 | [11] 0.038 | [12] -0.116 | givinostat -0.042 | barasertib 0.008

TMEM115 (UniProt Q12893)
inactive: IRAK-1-4 Inhibitor I 0.056 | ibrutinib 0.045 | [1] 0.046 | ralimetinib -0.052 | [2] 0.014 | [3] -0.127 | [4] 0.036 | pinometostat -0.012 | [5] -0.086 | [6] -0.007 | [7] -0.017 | [8] 0.062 | [9] 0.022 | [10] -0.018 | Nexturastat A -0.091 | vemurafenib -0.069 | [11] 0.002 | [12] -0.054 | givinostat 0.012 | barasertib -0.009

TMEM209 (UniProt Q96SK2)
inactive: IRAK-1-4 Inhibitor I 0.003 | ibrutinib 0 | [1] -0.098 | ralimetinib 0.018 | [2] -0.107 | [3] -0.151 | [4] 0.076 | pinometostat -0.006 | [5] -0.009 | [6] 0 | [7] -0.016 | [8] 0.063 | [9] 0.002 | [10] 0.013 | Nexturastat A -0.026 | vemurafenib 0.034 | [11] 0.011 | [12] -0.069 | givinostat -0.019 | barasertib 0.034

TMEM245 (UniProt Q9H330)
inactive: IRAK-1-4 Inhibitor I 0.026 | ibrutinib -0.006 | [1] 0.036 | ralimetinib -0.105 | [2] 0.009 | [3] 0.037 | [4] -0.019 | pinometostat -0.029 | [5] -0.008 | [6] -0.004 | [7] -0.03 | [8] 0.035 | [9] -0.007 | [10] 0.017 | Nexturastat A -0.089 | vemurafenib 0.01 | [11] -0.007 | [12] -0.015 | givinostat -0.017 | barasertib -0.003

TMOD1 (UniProt P28289)
inactive: IRAK-1-4 Inhibitor I -0.037 | ibrutinib -0.034 | [1] 0.072 | ralimetinib 0.052 | [2] -0.033 | [3] -0.032 | [4] 0.063 | pinometostat 0.084 | [5] 0.068 | [6] -0.046 | [7] 0.052 | [8] -0.028 | [9] -0.038 | [10] -0.003 | Nexturastat A 0.048 | vemurafenib 0.143 | [11] 0.013 | [12] 0.113 | givinostat 0.05 | barasertib 0.079

TMEM185B (UniProt Q9H7F4)
inactive: IRAK-1-4 Inhibitor I 0.018 | ibrutinib 0.012 | [1] -0.082 | ralimetinib -0.188 | [2] -0.012 | [3] -0.142 | [4] 0.096 | pinometostat -0.01 | [5] 0.017 | [6] 0.044 | [7] 0.018 | [8] -0.129 | [9] 0.029 | [10] 0.022 | Nexturastat A 0.011 | vemurafenib -0.106 | [11] 0.024 | [12] -0.133 | givinostat -0.114 | barasertib -0.003

TMEM259 (UniProt Q4ZIN3)
inactive: IRAK-1-4 Inhibitor I 0.017 | ibrutinib 0.038 | [1] 0 | ralimetinib 0.041 | [2] -0.014 | [3] -0.037 | [4] -0.011 | pinometostat 0.027 | [5] 0.045 | [6] 0.03 | [7] -0.031 | [8] 0.01 | [9] 0.075 | [10] -0.013 | Nexturastat A -0.014 | vemurafenib 0.016 | [11] -0.032 | [12] -0.021 | givinostat 0.063 | barasertib -0.006

TMEM199 (UniProt Q8N511)
inactive: IRAK-1-4 Inhibitor I 0.03 | ibrutinib 0.027 | [1] -0.044 | ralimetinib -0.032 | [2] -0.002 | [3] -0.003 | [4] -0.006 | pinometostat -0.005 | [5] -0.02 | [6] 0.2 | [7] -0.008 | [8] -0.052 | [9] 0.025 | [10] -0.061 | Nexturastat A -0.01 | vemurafenib -0.062 | [11] 0.006 | [12] -0.043 | givinostat 0.014 | barasertib -0.007

TMEM65 (UniProt Q6PI78)
inactive: IRAK-1-4 Inhibitor I -0.056 | ibrutinib -0.024 | [1] -0.052 | ralimetinib -0.054 | [2] -0.177 | [3] 0.002 | [4] -0.021 | pinometostat 0.185 | [5] -0.025 | [6] 0.067 | [7] 0.001 | [8] 0.023 | [9] 0.054 | [10] -0.092 | Nexturastat A 0.228 | vemurafenib -0.069 | [11] -0.092 | [12] -0.108 | givinostat 0 | barasertib 0.053

TMPPE (UniProt Q6ZT21)
inactive: IRAK-1-4 Inhibitor I 0.019 | ibrutinib -0.007 | [1] -0.031 | ralimetinib -0.015 | [2] 0.015 | [3] -0.032 | [4] -0.006 | pinometostat -0.042 | [5] -0.019 | [6] 0.062 | [7] 0.01 | [8] 0.011 | [9] -0.02 | [10] 0.041 | Nexturastat A -0.198 | vemurafenib 0.008 | [11] -0.037 | [12] -0.036 | givinostat 0.01 | barasertib -0.053
